Test in all cases: pull-down; LUMIER pulldown: one protein fused to ProtA, the other to Rluc, each single-expressed in HEK293TM cells; lysis buffer 20 mM Tris pH 7.5, 250 mM NaCl, 1.1% Triton X-100, 10 mM EDTA, 10 mM DTT; sheep anti-rabbit IgG-coated Dynabeads, 1 h on ice; Rluc on the beads as percent of input; +: >= 2.5%, w: 1.5%-2.5%, -: < 1.5%; two grades in each cell
Assay [1] addresses T1, AtEGL3 (Arabidopsis thaliana) (UniProt Q9CAD0).
T1 sequence: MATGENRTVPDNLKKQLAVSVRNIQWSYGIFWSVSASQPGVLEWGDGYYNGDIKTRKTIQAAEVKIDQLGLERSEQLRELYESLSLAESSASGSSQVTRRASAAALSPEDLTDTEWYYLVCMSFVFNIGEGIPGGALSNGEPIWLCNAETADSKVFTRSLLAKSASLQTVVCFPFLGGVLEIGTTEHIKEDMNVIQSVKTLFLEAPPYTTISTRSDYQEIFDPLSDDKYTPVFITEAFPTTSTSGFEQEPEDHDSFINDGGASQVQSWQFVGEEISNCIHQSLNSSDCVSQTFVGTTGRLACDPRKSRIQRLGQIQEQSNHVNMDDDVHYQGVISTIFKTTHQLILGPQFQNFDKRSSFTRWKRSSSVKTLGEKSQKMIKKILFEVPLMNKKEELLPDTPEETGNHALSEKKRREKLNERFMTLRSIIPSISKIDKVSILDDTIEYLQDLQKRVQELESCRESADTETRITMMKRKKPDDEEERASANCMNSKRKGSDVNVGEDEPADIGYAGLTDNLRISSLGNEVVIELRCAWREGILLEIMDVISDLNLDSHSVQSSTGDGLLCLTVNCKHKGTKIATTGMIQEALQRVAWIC

Sequences of proteins named here, by UniProt entry; tags and fusion partners are left off. A change or cut given only in a name is not applied to a line headed by its entry.
UniProt Q9ATD6: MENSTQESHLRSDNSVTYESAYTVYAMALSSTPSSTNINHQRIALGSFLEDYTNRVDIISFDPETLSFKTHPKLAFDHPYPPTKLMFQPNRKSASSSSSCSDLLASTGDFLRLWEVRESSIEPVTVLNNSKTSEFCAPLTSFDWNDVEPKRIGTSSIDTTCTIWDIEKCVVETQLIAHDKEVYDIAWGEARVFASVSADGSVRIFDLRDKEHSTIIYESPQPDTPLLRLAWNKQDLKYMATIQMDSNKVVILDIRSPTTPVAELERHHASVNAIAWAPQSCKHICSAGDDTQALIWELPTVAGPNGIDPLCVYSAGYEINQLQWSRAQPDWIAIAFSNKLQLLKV

Assay [2] concerns the target T2, AtGL1 (Arabidopsis thaliana) (UniProt P27900).
T2 sequence: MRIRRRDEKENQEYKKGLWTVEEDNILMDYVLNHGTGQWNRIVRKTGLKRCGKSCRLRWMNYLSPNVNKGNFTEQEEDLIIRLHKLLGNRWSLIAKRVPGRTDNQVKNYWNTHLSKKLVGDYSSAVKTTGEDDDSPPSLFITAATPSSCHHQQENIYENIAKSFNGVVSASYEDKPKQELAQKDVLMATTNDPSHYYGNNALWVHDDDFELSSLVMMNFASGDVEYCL

Assay [3] deals with T3, AtPAP1 (Arabidopsis thaliana) (UniProt Q9FE25).
T3 sequence: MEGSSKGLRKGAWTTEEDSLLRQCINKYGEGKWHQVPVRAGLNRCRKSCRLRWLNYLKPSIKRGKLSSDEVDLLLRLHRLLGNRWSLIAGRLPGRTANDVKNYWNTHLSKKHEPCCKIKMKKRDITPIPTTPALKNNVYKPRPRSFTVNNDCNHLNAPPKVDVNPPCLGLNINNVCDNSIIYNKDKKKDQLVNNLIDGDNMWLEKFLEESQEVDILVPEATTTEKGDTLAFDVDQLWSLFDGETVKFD

For assay [4], the target named is T4, AtPAP2 (Arabidopsis thaliana) (UniProt Q9ZTC3).
T4 sequence: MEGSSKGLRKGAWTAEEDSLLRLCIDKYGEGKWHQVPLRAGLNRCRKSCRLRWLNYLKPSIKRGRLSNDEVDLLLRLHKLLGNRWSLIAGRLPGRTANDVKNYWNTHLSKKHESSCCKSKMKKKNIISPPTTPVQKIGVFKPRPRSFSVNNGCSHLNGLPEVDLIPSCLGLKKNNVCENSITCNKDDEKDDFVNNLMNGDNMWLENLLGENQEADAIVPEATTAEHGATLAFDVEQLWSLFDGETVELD

Assay [5] concerns the target T5, AtTT8 (Arabidopsis thaliana) (UniProt Q9FT81).
T5 sequence: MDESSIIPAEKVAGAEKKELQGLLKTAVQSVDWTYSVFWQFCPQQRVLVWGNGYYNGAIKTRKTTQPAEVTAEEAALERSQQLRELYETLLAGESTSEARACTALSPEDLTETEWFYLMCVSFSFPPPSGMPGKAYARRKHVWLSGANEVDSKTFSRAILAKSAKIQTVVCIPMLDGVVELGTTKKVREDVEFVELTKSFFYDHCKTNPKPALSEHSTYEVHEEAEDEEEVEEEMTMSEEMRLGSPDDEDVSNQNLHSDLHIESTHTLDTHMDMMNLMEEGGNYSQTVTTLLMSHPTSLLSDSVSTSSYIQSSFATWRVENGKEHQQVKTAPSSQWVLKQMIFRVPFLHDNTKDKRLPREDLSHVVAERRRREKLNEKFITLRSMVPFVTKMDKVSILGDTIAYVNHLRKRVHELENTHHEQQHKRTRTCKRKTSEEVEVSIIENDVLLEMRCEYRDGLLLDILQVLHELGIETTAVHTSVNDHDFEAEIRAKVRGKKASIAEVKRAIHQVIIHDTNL

Results are given in words; binding and its absence hold for the method and conditions named. Binding seen in cells or lysates may run through a third protein. For some assays here: Binding calls can cover weak binding; strength is not graded here.

As to GhTTG2 (Gossypium hirsutum), the binding result in assay [1], in assay [2], in assay [3], in assay [4] and in assay [5] was “no binding” in each case.
GhTTG4 (Gossypium hirsutum): the binding entry in assay [1], in assay [2], in assay [3], in assay [4] and in assay [5] was “no binding” in each case.
Take ZmPAC1 (Zea mays): the binding result in assay [1] is “binds”; in assay [2] it was “no binding”; in assay [3], “no binding”; in assay [4] it was “no binding”; in assay [5] it was “binds”.
Turning to AaTTG1 (Arabis alpina), the binding result in assay [1] was “binds”; in assay [2] it was “no binding”; in assay [3] it was “no binding”; in assay [4] it was “no binding”; in assay [5] it was “binds”.
Take GhTTG1 (from UniProt Q9ATD6): the binding result in assay [1] is on record as “binds”; in assay [2], “no binding”; in assay [3], “no binding”; in assay [4], “no binding”; in assay [5] it was “binds”.
As for ZmMP1 (Zea mays), the binding result in assay [1], in assay [2], in assay [3], in assay [4] and in assay [5] was “no binding” each time.
GhTTG3 (Gossypium hirsutum): the binding result in assay [1] was “binds”; in assay [2] it was “no binding”; in assay [3], “no binding”; in assay [4], “no binding”; in assay [5], “no binding”.

Values taken from PMC6449874.
